According to PMC7093135:
No constants are given. Whether binding was seen depends on the method and setting. In cells and extracts the contact can be indirect. Some binding calls cover weakened binding; strength is not graded here.

Sequences of proteins named here, by UniProt entry; tags and fusion partners are left off. Residues count along the entry.
UniProt P63168: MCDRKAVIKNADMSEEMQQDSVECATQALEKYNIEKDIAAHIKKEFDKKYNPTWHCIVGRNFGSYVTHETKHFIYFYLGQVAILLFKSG
UniProt P19783, residues 23-169: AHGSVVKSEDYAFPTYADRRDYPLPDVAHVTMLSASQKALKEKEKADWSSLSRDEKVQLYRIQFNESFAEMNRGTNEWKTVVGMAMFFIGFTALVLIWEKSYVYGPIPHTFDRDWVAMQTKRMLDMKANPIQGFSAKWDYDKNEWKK
UniProt P62821: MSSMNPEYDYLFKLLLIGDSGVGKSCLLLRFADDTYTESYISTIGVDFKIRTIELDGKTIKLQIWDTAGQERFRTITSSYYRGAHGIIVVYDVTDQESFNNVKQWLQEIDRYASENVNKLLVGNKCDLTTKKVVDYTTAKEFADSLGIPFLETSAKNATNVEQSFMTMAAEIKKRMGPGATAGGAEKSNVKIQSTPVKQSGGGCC

How the values were obtained:
[1] = biological target: Dynein light chain 1 (Dynll1) (mouse (endogenous in DC2.4)) (UniProt P63168); assay: proximity ligation; Duolink PLA on fixed DC2.4 cells (no infection or infected with L. monocytogenes for 6.5 h), primary antibodies overnight at 4°C; negative controls with one antibody only
[2] = biological target: mitochondrial cytochrome oxidase Cox4i1 (mouse (endogenous in DC2.4)) (UniProt P19783); assay: co-IP; forward and reverse co-IP of endogenous Dynll1 and Cox4i1 from RIPA lysates of DC2.4 cells (no infection or infected with L. monocytogenes), protein A-agarose, Western blot

binding [1]	binding [2]	Molecule
binds		Rab1a (from UniProt P62821 1-205)
	binds	Dynein light chain 1 (Dynll1) (from UniProt P63168 1-89)
binds		Snx2 (protein, UniProt Q9CWK8 1-519) MAAEREPPPLGDVKPTDFEELEDGEDLFTSTVSTLESSPSSPEPASLPAEDISANSNGSKPVEVVLDDDREDLFAEATEEVSLDSPERELILSSEPSPAVTPVTPTTLIAPRIESKSISAPVIFDRSRDEIEEEANGDIFDIEIGVSDPEKVGDGMNAYMAYRVTTKTSLSMFSKSEFSVKRRFSDFLGLHSKLASKYLHVGYIVPPAPEKSIVGMTKVKVGKEDSSSTEFVEKRRAALERYLQRTVKHPTLLQDPDLRQFLESSELPRAVNTQALSGAGILRMVNKAADAVNKMTIKMNESDAWFEEKQQQFENLDQQLRKLHASVEALVCHRKELSANTAAFAKSAAMLGNSEDHTALSRALSQLAEVEEKIDQLHQEQAFADFYMFSELLSDYIRLIAAVKGVFDHRMKCWQKWEDAQITLLKKRETEAKMMVANKPDKIQQAKNEIREWEAKVQQGERDFEQISKTIRKEVGRFEKERVKDFKAVIIKYLESLVQTQQQLIKYWEAFLPEAKAIA
binds		Canx (protein, UniProt P35564 21-591) HDGHDDDAIDIEDDLDDVIEEVEDSKSKSDASTPPSPKVTYKAPVPTGEVYFADSFDRGSLSGWILSKAKKDDTDDEIAKYDGKWEVDEMKETKLPGDKGLVLMSRAKHHAISAKLNKPFLFDTKPLIVQYEVNFQNGIECGGAYVKLLSKTAELSLDQFHDKTPYTIMFGPDKCGEDYKLHFIFRHKNPKTGVYEEKHAKRPDADLKTYFTDKKTHLYTLILNPDNSFEILVDQSVVNSGNLLNDMTPPVNPSREIEDPEDRKPEDWDERPKIADPDAVKPDDWDEDAPSKIPDEEATKPEGWLDDEPEYIPDPDAEKPEDWDEDMDGEWEAPQIANPKCESAPGCGVWQRPMIDNPNYKGKWKPPMIDNPNYQGIWKPRKIPNPDFFEDLEPFKMTPFSAIGLELWSMTSDIFFDNFIISGDRRVVDDWANDGWGLKKAADGAAEPGVVLQMLEAAEERPWLWVVYILTVALPVFLVILFCCSGKKQSNAMEYKKTDAPQPDVKDEEGKEEEKNKRDEEEEEEKLEEKQKSDAEEDGVTGSQDEEDSKPKAEEDEILNRSPRNRKPRRE
